Reference: article PMC5732324
These are yes or no findings as the source states them, for the method shown. In cells and extracts the contact can be indirect. Some results given as binding are weak or reduced against the parent protein; the word gives no strength. For some of these results: Sequences can lack the tags named with a protein.

Amino acid sequences for entries named in this document (tags omitted). Residues count along the entry.
UniProt P11021, residues 19-654: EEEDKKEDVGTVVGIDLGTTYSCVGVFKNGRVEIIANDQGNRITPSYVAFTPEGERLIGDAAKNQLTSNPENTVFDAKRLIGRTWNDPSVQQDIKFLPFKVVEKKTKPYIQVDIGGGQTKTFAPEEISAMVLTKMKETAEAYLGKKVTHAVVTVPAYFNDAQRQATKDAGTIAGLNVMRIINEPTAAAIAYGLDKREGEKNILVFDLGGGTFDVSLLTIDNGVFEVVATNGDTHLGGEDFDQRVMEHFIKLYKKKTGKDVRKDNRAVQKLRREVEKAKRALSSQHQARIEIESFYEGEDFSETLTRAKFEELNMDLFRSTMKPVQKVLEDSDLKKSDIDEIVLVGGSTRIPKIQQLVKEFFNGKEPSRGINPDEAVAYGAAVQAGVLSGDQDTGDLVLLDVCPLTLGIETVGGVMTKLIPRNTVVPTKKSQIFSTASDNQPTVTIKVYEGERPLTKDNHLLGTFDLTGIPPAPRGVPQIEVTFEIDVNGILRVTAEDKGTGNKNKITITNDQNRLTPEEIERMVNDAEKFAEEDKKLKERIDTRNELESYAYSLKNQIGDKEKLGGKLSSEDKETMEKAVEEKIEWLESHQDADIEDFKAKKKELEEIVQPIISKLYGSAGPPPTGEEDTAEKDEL
UniProt P11142: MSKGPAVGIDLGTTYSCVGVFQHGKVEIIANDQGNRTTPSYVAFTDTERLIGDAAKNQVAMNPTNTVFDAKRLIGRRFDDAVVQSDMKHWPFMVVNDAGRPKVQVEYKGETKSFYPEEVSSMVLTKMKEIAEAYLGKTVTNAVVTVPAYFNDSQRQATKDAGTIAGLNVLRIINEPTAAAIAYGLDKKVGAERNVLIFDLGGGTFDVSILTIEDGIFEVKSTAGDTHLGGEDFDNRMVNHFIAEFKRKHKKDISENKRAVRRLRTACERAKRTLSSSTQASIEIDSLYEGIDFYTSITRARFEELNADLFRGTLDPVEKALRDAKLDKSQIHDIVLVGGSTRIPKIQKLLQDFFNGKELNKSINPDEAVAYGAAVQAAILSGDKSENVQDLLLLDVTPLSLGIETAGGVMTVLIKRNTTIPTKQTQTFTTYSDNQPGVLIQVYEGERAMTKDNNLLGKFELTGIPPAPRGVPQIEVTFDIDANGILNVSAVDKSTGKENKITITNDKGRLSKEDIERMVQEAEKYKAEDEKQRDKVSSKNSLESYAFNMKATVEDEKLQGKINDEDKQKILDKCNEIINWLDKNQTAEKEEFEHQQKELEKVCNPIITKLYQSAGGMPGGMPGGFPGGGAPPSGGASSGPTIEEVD

Columns and labels:
[1] = biological target: T1, phosphoinositide-dependent protein kinase 1 (human (endogenous in HEK293 and U251)) (UniProt O15530); assay: co-IP; 10^7 cells (HEK293 or U251-pcDNA3.1 LRRC4) lysed with GLB+ buffer; antibodies incubated with the lysate, then Protein G beads; Western blotting
T1 sequence: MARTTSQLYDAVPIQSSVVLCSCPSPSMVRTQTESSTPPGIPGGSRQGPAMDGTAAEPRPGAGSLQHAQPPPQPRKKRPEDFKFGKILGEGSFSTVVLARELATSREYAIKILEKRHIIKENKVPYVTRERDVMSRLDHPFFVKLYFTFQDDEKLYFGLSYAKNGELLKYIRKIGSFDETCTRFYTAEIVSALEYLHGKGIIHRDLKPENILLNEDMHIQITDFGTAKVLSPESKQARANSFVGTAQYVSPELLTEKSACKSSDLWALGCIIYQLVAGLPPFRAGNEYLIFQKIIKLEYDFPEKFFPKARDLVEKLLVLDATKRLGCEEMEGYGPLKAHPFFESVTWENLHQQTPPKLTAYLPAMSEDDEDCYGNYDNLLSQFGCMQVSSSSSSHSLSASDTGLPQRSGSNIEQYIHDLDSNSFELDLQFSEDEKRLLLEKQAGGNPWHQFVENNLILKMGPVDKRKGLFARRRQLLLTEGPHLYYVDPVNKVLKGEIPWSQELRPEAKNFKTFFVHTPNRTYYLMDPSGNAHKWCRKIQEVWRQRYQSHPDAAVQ

[2] = biological target: HSPA5 (human (endogenous in U251)) (UniProt P11021); assay: as above
[3] = biological target: HSPA8 (human (endogenous in U251)) (UniProt P11142); assay: as above
GST-PDPK1 PH domain = biological target: T2, GST-PDPK1 PH domain (UniProt O15530); assay: pull-down; GST-PDPK1 domains or GST-HSP90 domains from bacterial lysates on glutathione-Sepharose 4B beads, incubated with cell lysates containing LRRC4; eluted and run on a gel; only the target purified
T2 sequence: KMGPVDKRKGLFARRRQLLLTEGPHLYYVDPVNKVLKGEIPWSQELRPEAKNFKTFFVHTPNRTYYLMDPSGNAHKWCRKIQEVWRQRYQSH

B1: Leucine-rich repeat (LRR) C4 protein (protein, UniProt Q9HBW1 39-653)
chain: ASAGPQNCPSVCSCSNQFSKVVCTRRGLSEVPQGIPSNTRYLNLMENNIQMIQADTFRHLHHLEVLQLGRNSIRQIEVGAFNGLASLNTLELFDNWLTVIPSGAFEYLSKLRELWLRNNPIESIPSYAFNRVPSLMRLDLGELKKLEYISEGAFEGLFNLKYLNLGMCNIKDMPNLTPLVGLEELEMSGNHFPEIRPGSFHGLSSLKKLWVMNSQVSLIERNAFDGLASLVELNLAHNNLSSLPHDLFTPLRYLVELHLHHNPWNCDCDILWLAWWLREYIPTNSTCCGRCHAPMHMRGRYLVEVDQASFQCSAPFIMDAPRDLNISEGRMAELKCRTPPMSSVKWLLPNGTVLSHASRHPRISVLNDGTLNFSHVLLSDTGVYTCMVTNVAGNSNASAYLNVSTAELNTSNYSFFTTVTVETTEISPEDTTRKYKPVPTTSTGYQPAYTTSTTVLIQTTRVPKQVAVPATDTTDKMQTSLDEVMKTTKIIIGCFVAVTLLAAAMLIVFYKLRKRHQQRSTVTAARTVEIIQVDEDIPAATSAAATAAPSGVSGEGAVVLPTIHDHINYNTYKPAHGAHWTENSLGNSLHPTVTTISEPYIIQTHTKDKVQETQI
[1]
  binding: binds
[2]
  binding: no binding
[3]
  binding: no binding
GST-PDPK1 PH domain
  binding: binds
